In patent publication US20230086865A1, “ANTI-INFECTIVE BICYCLIC PEPTIDE CONJUGATES” (priority 2020, published 2023):
In brackets after ≈: the same amount, converted by molar mass.

Experiments:
P. aeruginosa ATCC 27853 = assay: MIC follow-on study; details: Pseudomonas aeruginosa, ATCC27853
P. aeruginosa NCTC 13437 = assay: MIC follow-on study; format: cell-based; details: Pseudomonas aeruginosa, NCTC13437
Experimental: Minimum inhibitory concentration (MIC) assays were carried out using E. coli strains: GKCW101; GKCW102 and ATCC25922 using the method described by Antimicrobial Agents and Chemotherapy December 2016 Volume 60 Number 12 pages 7372-7381 and CLSI, 2020. Performance standards for antimicrobial susceptibility testing. Clinical Lab Standards Institute.
As a follow-on study, the MIC of BCY13246 was measured against a range of bacterial targets and compared with the MIC for the constituent bicyclic peptide ([…]) and carrier peptide ([…]) alone along with existing anti-microbial agents meropenem and levofloxacin. […].

## C[C@H]1COc2c(N3CCN(C)CC3)c(F)cc3c(=O)c(C(=O)O)cn1c23 [Levofloxacin, levofloxacin]
P. aeruginosa ATCC 27853
  MIC: 1 µg/mL (≈ 2.77 µM)
P. aeruginosa NCTC 13437
  MIC: > 2 µg/mL
